# Measured values taken from the supplement of paper PMC8732350.
# Where a name gives a salt, the structure may show the parent alone. ± gives the standard deviation of the averaged measurements. This is one part of the list. Most values lie within the scatter of the assay; repeated measurements hardly agree.
# Tested on: A549
# Assay: surface PD-L1 immunofluorescence intensity relative to IFN-gamma-only control (ratio); higher = more PD-L1 expression
# Conditions: 10 µM; exposure time 24 h; IFN-gamma 100 ng/mL
row,Compound,surface PD-L1 immunofluorescence intensity
1,CN(C)CCOC(c1ccc(Cl)cc1)c1ccccn1 (centres undefined) [Carbinoxamine maleate salt],0.942
2,Nc1nc2c(ccc3ccccc32)s1,1.03
3,NC(=O)NC1NC(=O)NC1=O (centres undefined) [Allantoin],0.862
4,CCCCCCCCCCCC1=C(O)C(=O)C=C(O)C1=O [Embelin],1.01
5,CN[C@@H]1[C@H](O[C@H]2[C@H](O[C@H]3[C@H](O)[C@@H](O)[C@H](NC(=N)N)[C@@H](O)[C@@H]3NC(=N)N)O[C@@H](C)[C@]2(O)CO)O[C@@H](CO)[C@H](O)[C@H]1O [Dihydrostreptomycin sulfate],0.972
6,NCc1ccc(S(N)(=O)=O)cc1 [Mafenide hydrochloride],0.963
7,Cc1ccccc1N=Nc1ccc(NC(=O)c2ccnn2C)c(C)c1,0.987
8,O=c1[nH]nc(Sc2ncc([N+](=O)[O-])s2)n1-c1ccc2c(c1)OCCO2,1.04 ± 0.067
9,CCN(CCCOc1ccc2c(Nc3cc(CC(=O)Nc4cccc(F)c4)[nH]n3)ncnc2c1)CCOP(=O)(O)O [Barasertib (AZD1152-HQPA)],0.987
10,c1ccc(-c2n[nH]c3c2oc2ccccc23)cc1,1.03
11,c1ccc2oc(C3=NCCN3)cc2c1 [2-BFI hydrochloride],1.04
12,CCc1oc2ccccc2c1C(=O)c1cc(Br)c(O)c(Br)c1 [Benzbromarone],0.956
13,CC/C(=C(\c1ccccc1)c1ccc(OCCN(C)C)cc1)c1ccccc1 [Tamoxifen],1.1
14,CC/C(=C(\c1ccccc1)c1ccc(OCCN(C)C)cc1)c1ccccc1 [Tamoxifen citrate],1.06 ± 0.071
15,C=C(c1ccc(C(=O)O)cc1)c1cc2c(cc1C)C(C)(C)CCC2(C)C [Bexarotene],1.08
16,CC(C)(C)NCC(O)c1cc(O)cc(O)c1 (centres undefined) [Terbutaline hemisulfate],0.948
17,O=C(O)CCCCC1CCSS1 (racemic) [DL-?-Lipoic acid],0.968
18,NS(=O)(=O)c1cc2c(cc1Cl)NC(CC1CCCC1)NS2(=O)=O (centres undefined) [Cyclopenthiazide],1
19,CC[N+](CC)(CC)CCOc1cccc(OCC[N+](CC)(CC)CC)c1OCC[N+](CC)(CC)CC [Gallamine triethiodide],0.966
20,CCOC(=O)[N-]c1c[n+](N2CCOCC2)no1 [Molsidomine],1

row,Compound,surface PD-L1 immunofluorescence intensity
1,CN1CCC[C@@H]1CCO[C@](C)(c1ccccc1)c1ccc(Cl)cc1 [Clemastine fumarate],1.03 ± 0.045
2,CCOc1ccc(NC(C)=O)cc1 [Phenacetin],0.925
3,O=C(c1ccc(OCCCc2c[nH]cn2)cc1)C1CC1 [Ciproxifan],0.997
4,[O-][S+](c1ccccc1)c1ccc2nnnn2n1 (centres undefined),1.15
5,CC(C(=O)O)c1ccc(C(=O)c2cccs2)cc1 (centres undefined) [Suprofen],1.07
6,COc1cc2ncnc(Nc3ccc(F)c(Cl)c3)c2cc1OCCCN1CCOCC1 [Gefitinib (Iressa)],0.976
7,COc1cc2ncnc(Nc3ccc(F)c(Cl)c3)c2cc1OCCCN1CCOCC1 [Gefitinib],0.975
8,CN1CCN(c2nc(C3=C(c4c[nH]c5ccccc45)C(=O)NC3=O)c3ccccc3n2)CC1 [Sotrastaurin (AEB071)],1.18
9,CCCCC[C@H](O)/C=C/[C@H]1[C@H](O)CC(=O)[C@@H]1CCCCCCC(=O)O [Alprostadil (Caverject)],1.01
10,CCCCC[C@H](O)/C=C/[C@H]1[C@H](O)CC(=O)[C@@H]1CCCCCCC(=O)O [Alprostadil],1.01
11,O=C(O)c1cccnc1C(=O)O [Quinolinic acid],1.09
12,CCN1CCC[C@H]1CNC(=O)c1c(O)c(Cl)cc(Cl)c1OC [Raclopride],0.952 ± 0.066
13,NC(N)=NCCC[C@H](NC(=O)[C@@H]1CCCN1C(=O)[C@H](N)Cc1ccccc1)C(=O)CCl,1.04
14,CN(C(=O)c1c(O)c2ccccc2n(C)c1=O)c1ccccc1 [Linomide],0.99
15,CC(C)Cc1ccc(C(C)C(=O)O)cc1 (centres undefined) [Ibuprofen Lysine (NeoProfen)],1.09
16,COc1ccc(C(=O)c2ccccc2O)c(O)c1 [Dioxybenzone],0.998
17,CC(C)(C)NC[C@H](O)COc1ccccc1C1CCCC1 [Penbutolol sulfate],1.01
18,Nc1nc2[nH]cc(CCc3ccc(C(=O)N[C@@H](CCC(=O)O)C(=O)O)cc3)c2c(=O)[nH]1 [Pemetrexed (Alimta)],0.939
19,COc1ccc2cccc(N3CCN(CCNC(=O)c4ccc(F)cc4)CC3)c2c1,0.971

# 2 entries drawn at random from those above, as already listed:
row,Compound,surface PD-L1 immunofluorescence intensity
18,Nc1nc2[nH]cc(CCc3ccc(C(=O)N[C@@H](CCC(=O)O)C(=O)O)cc3)c2c(=O)[nH]1 [Pemetrexed (Alimta)],0.939
4,[O-][S+](c1ccccc1)c1ccc2nnnn2n1 (centres undefined),1.15
